Consider 21 molecules from PubChem BioAssay AID250 (DTP/NCI, 2004).

In this experiment the test system is BDF1 mice, L1210 leukemia sc, survival T/C. Kind of experiment: NCI In Vivo Anticancer Drug Screen. Data for tumor model L1210 Leukemia (subcutaneous) in B6D2F1 (BDF1) mice. Particulars: T/C endpoint: median survival time, higher T/C = longer survival. Here is the method: The antitumor activity of compounds was measured in mice bearing transplantable tumors. Survival or tumor size were measured and the results are expressed as the measurement made in the treated group (T) divided by the measurement made in the vehicle treated control group (C). The tumor model used in this assay is L1210 Leukemia (subcutaneous) in B6D2F1 (BDF1) mice

Setting [1] is: dose: 8.4 mg/kg/injection, schedule: Q01DX Z (sc), vehicle: methylcellulose (MC).
Where [2] appears, read: dose: 39.0 mg/kg/injection, schedule: Q01DX Z (sc), vehicle: methylcellulose (MC).
The mark [3] stands for this setting: dose: 65.0 mg/kg/injection, schedule: Q01DX Z (sc), vehicle: methylcellulose (MC).
[4] abbreviates: dose: 180.0 mg/kg/injection, schedule: Q01DX Z (sc), vehicle: methylcellulose (MC).
Where [5] appears, read: dose: 300.0 mg/kg/injection, schedule: Q01DX Z (sc), vehicle: methylcellulose (MC).
Setting [6] is: dose: 108.0 mg/kg/injection, schedule: Q01DX Z (sc), vehicle: water.
The mark [7] stands for this setting: dose: 180.0 mg/kg/injection, schedule: Q01DX Z (sc), vehicle: water.
Setting [8] is: dose: 14.0 mg/kg/injection, schedule: Q01DX Z (sc), vehicle: methylcellulose (MC).
Where [9] appears, read: dose: 108.0 mg/kg/injection, schedule: Q01DX Z (sc), vehicle: methylcellulose (MC).
Setting [10] is: dose: 108.0 mg/kg/injection, schedule: Q01DX Z (sc), vehicle: saline.
[11] abbreviates: dose: 300.0 mg/kg/injection, schedule: Q01DX Z (sc), vehicle: saline.
[12] abbreviates: dose: 500.0 mg/kg/injection, schedule: Q01DX Z (sc), vehicle: methylcellulose (MC).
[13] abbreviates: dose: 833.0 mg/kg/injection, schedule: Q01DX Z (sc), vehicle: methylcellulose (MC).

The structures appear in SMILES notation. The list does not hold the whole screen: it is rich in T/C values a quarter to a half above the control, in often repeated tests (any T/C) and in doses without a T/C. Further doses and runs are listed elsewhere. T/C: endpoint of the treated group in % of that of the vehicle group. Some entries give survivors of the animals treated and no T/C: the source holds a T/C of zero for them, seemingly a mark for toxic or unscored doses. Some survivor counts are full or nearly so, which does not show that the dose was tolerated: survival well below the control is almost never listed, so the zero probably covers shortened survival too. Counts of survivors are from the toxicity check (mostly the fifth day) where no day follows; animals may have died later. Schedules are NCI's codes, read here as Q, the interval in days (D) or hours (H), X, the number of doses. Some schedules carry Z or #; the key to these is not given. Some entries were tested several times; their values stand side by side, smallest first.

As for `S=c1nc[nH]c2c1ncn2C1C=CCCC1` (centres undefined), the survivor count is 6 of 10 under setting [1]; 6 of 10 under setting [2]; 6 of 10 under setting [3]; 6 of 10 under setting [4]; 3 of 10 under setting [5].
Regarding `COS(C)(=O)=O`, the survivor count under setting [6] was 6 of 10 and the survivor count under setting [7] is listed as 0 of 10.
Turning to `O=C(O)c1ccc([N+](=O)[O-])cc1`, the survivor count runs as follows: under setting [8], 6 of 10; under setting [2], 4 of 10; under setting [3], 3 of 10; under setting [9], 4 of 10; under setting [4], 3 of 10; under setting [5], 4 of 10.
In the case of `CS(=O)(=O)OCCCCOS(C)(=O)=O`, the survivor count is 6 of 10 under setting [2]; 6 of 10 (dose: 100.0 mg/kg/injection, schedule: Q01DX009 (ip), vehicle: Klucel (hydroxypropylcellulose) (HPC)); 9 of 10 (dose: 100.0 mg/kg/injection, schedule: Q01DX009 (sc), vehicle: Klucel (hydroxypropylcellulose) (HPC)); 2 of 10 (dose: 216.0 mg/kg/injection, schedule: Q01DX Z (sc), vehicle: methylcellulose (MC)); 0 of 10 (dose: 360.0 mg/kg/injection, schedule: Q01DX Z (sc), vehicle: methylcellulose (MC)); 0 of 10 (dose: 600.0 mg/kg/injection, schedule: Q01DX Z (sc), vehicle: methylcellulose (MC)).
Regarding `O=C(Nc1ccc(C2=NCCN2)cc1)c1ccc(C(=O)Nc2ccc(C3=NCCN3)cc2)c([N+](=O)[O-])c1`, the survivor count is recorded as 6 of 10 (dose: 5.0 mg/kg/injection, schedule: Q01DX Z (sc), vehicle: saline); 6 of 10 (dose: 23.0 mg/kg/injection, schedule: Q01DX Z (sc), vehicle: saline); 6 of 10 (dose: 65.0 mg/kg/injection, schedule: Q01DX Z (sc), vehicle: water); 0 of 10 (dose: 108.0 mg/kg/injection, schedule: Q01DX Z (ip), vehicle: water); 2 of 10 under setting [10]; 5 of 10 under setting [6]. In addition, the survivor count is, setting by setting: (dose: 180.0 mg/kg/injection, schedule: Q01DX Z (ip), vehicle: water) 0 of 10; (dose: 180.0 mg/kg/injection, schedule: Q01DX Z (sc), vehicle: saline) 0 of 10; under setting [7], 0 of 10; under setting [11], 0 of 10; (dose: 300.0 mg/kg/injection, schedule: Q01DX Z (sc), vehicle: water) 0 of 10.
For the molecule `O=C(O)c1cc(=O)[nH]c(=O)[nH]1`, the survivor count by setting is: (dose: 39.0 mg/kg/injection, schedule: Q01DX Z (sc), vehicle: saline) 6 of 10; under setting [10], 6 of 10.
In the case of `CC1(O)CCC2C3CCC4=C(O)C(=O)CCC4C3CCC21C` (centres undefined), the survivor count reads like this: under setting [2], 1 of 10; under setting [3], 3 of 10 and 4 of 10; under setting [9], 6 of 10; under setting [4], 0 of 10 and 5 of 10; under setting [5], 2 of 10 and 4 of 10; under setting [12], 2 of 10. Besides, the survivor count under setting [13] was 4 of 10.
Take `CCC(=O)O[C@H]1CC[C@H]2[C@@H]3CC[C@H]4CC(=O)[C@H](C)C[C@]4(C)[C@H]3CC[C@]12C`: the survivor count under setting [2] is reported as 5 of 10; the survivor count under setting [9] is recorded as 1 of 10; the survivor count under setting [4] is recorded as 1 of 10; the survivor count under setting [5] is 1 of 10 and 5 of 10; the survivor count under setting [12] was 3 of 10 and 6 of 10; the survivor count under setting [13] is recorded as 0 of 10.
Regarding `O=c1nc2[nH]c(=O)[nH]c(=O)c2n[nH]1`, the survivor count is recorded as 6 of 10 (dose: 17.0 mg/kg/injection, schedule: Q01DX Z (sc), vehicle: saline); 6 of 10 (dose: 130.0 mg/kg/injection, schedule: Q01DX Z (sc), vehicle: saline); 5 of 10 (dose: 216.0 mg/kg/injection, schedule: Q01DX Z (sc), vehicle: saline).
For `CCOS(C)(=O)=O`, the survivor count under setting [11] is recorded as 2 of 10.
As for `CCCCCn1c(C)cc(/C=C\c2ccc3cc(C)ccc3[n+]2C)c1C`, the survivor count reads like this: (dose: 1.8 mg/kg/injection, schedule: Q01DX Z (sc), vehicle: methylcellulose (MC)) 10 of 10; (dose: 3.0 mg/kg/injection, schedule: Q01DX Z (sc), vehicle: methylcellulose (MC)) 1 of 10; (dose: 5.0 mg/kg/injection, schedule: Q01DX Z (sc), vehicle: methylcellulose (MC)) 2 of 10; under setting [1], 1 of 10; under setting [8], 0 of 10.
Regarding `O=c1[nH]cc(N(CCCl)CCCl)c(=O)[nH]1`, for the setting “dose: 14.0 mg/kg/injection, schedule: Q01DX Z (sc), vehicle: other”, the survivor count was 9 of 10.
`C[n+]1c2ccccc2c(Nc2ccc(NS(=O)(=O)CCCCN=C(N)N)cc2)c2ccc(N)cc21`: the survivor count (dose: 24.0 mg/kg/injection, schedule: Q01DX009 (ip), vehicle: water) is on record as 5 of 10.
Consider `O=S(=O)(Nc1ccccn1)c1ccc(N(CCCl)CCCl)cc1`, for which the survivor count by setting is: under setting [4], 1 of 10; under setting [5], 3 of 10; under setting [12], 2 of 10; under setting [13], 6 of 10; (dose: 1388.0 mg/kg/injection, schedule: Q01DX Z (sc), vehicle: methylcellulose (MC)) 2 of 10.
For `CC[n+]1c(-c2ccccc2)c2cc(N)ccc2c2ccc(N)cc21`, the survivor count by setting is: (dose: 180.0 mg/kg/injection, schedule: Q01DX Z (sc), vehicle: carboxymethylcellulose (CMC)) 1 of 8; (dose: 300.0 mg/kg/injection, schedule: Q01DX Z (sc), vehicle: carboxymethylcellulose (CMC)) 0 of 8.
On to `CCc1nc(N)nc(N)c1-c1ccc(Cl)cc1`, for which the survivor count by setting is: under setting [8], 2 of 10; (dose: 23.0 mg/kg/injection, schedule: Q01DX Z (sc), vehicle: methylcellulose (MC)) 2 of 10; under setting [2], 4 of 10; under setting [3], 4 of 10.
Consider `CC/C(=C(/CC)c1ccc(O)cc1)c1ccc(O)cc1`, for which the survivor count reads like this: under setting [3], 5 of 10; under setting [4], 6 of 10; under setting [12], 6 of 10.
`O=C(NC(CO)C(=O)O)C(Cl)Cl` (centres undefined): the survivor count (dose: 833.0 mg/kg/injection, schedule: Q01DX Z (sc), vehicle: water) is 4 of 10.
For `COC1=C(N)C(=O)c2nc(-c3nc(C(=O)O)c(C)c(-c4ccc(OC)c(OC)c4O)c3N)ccc2C1=O`, the survivor count is, setting by setting: (dose: 0.8 mg/kg/injection, schedule: Q01DX009 (ip), vehicle: water) 5 of 10; (dose: 0.8 mg/kg/injection, schedule: Q01DX009 (sc), vehicle: water) 9 of 10; (dose: 8.0 mg/kg/injection, schedule: Q01DX009 (sc), vehicle: water) 10 of 10.
In the case of `NS(=O)(=O)c1ncnc2nc[nH]c12`, the survivor count under setting [4] is recorded as 3 of 8, the survivor count under setting [5] is listed as 0 of 8 and the survivor count under setting [12] is 0 of 8.
Turning to `COc1cccc(/C=N/NC(N)=S)c1`, the survivor count was 1 of 10 (dose: 360.0 mg/kg/injection, schedule: Q01DX Z (sc), vehicle: water) and 0 of 10 (dose: 600.0 mg/kg/injection, schedule: Q01DX Z (sc), vehicle: water).
